Laboratory results: PubChem BioAssay AID1259254 (NCATS, 2017)
Aim: 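Genome-wide screen for genes that prevent DNA re-replication in cancer cells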 (primary screen). System: human HCT116 colorectal cancer cells. Knock-down reagent: single siRNA against human genes. Timing: 3 days. Measurement: 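Imaged Hoechst DNA stain sorts each cell into a cycle phase by DNA amount; per plate, G2 fraction set to 0% for non-targeting and 100% for GMNN siRNA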. Reading the numbers: G2 robust z-score and G2 cells, % of GMNN control: higher = more G2 cells, more excess DNA replication. Rule for the call: 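An siRNA counts as active if its G2 robust z-score lies at least 5 MADs above the screen median; here such calls match roughly 38% of GMNN control or more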.
In all, the deposit lists about 59,000 reagents; shown is an unselected part. About 1,550 of all reagents (2.6%) were called active. 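G2 share is only a proxy for re-replication; each gene was hit by three separate siRNAs, and active genes were retested.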 Not all columns of the deposit are shown. Not given: the amount of reagent.

After knock-down of GRAMD1C [SID160742119] the results were G2 robust z-score 0.318; G2 cells, % of GMNN control 5.2; inactive. Depletion of GRAMD1C [SID160742122] resulted in: G2 robust z-score 2.73; G2 cells, % of GMNN control 22.2; inactive. With knock-down of GRAMD1C [SID160742123] the results were G2 robust z-score 0.17; G2 cells, % of GMNN control 4.16; inactive. USF1 [SID160718672] showed G2 robust z-score -0.758; G2 cells, % of GMNN control -2.37; inactive. USF1 [SID160718673] scored G2 robust z-score -0.885; G2 cells, % of GMNN control -3.26; inactive. Silencing of USF1 [SID160718674] resulted in: G2 robust z-score -0.889; G2 cells, % of GMNN control -3.29; inactive.

For LMNB2 [SID160752749], the values are G2 robust z-score -1.54; G2 cells, % of GMNN control -7.87; inactive. LMNB2 [SID160752750] gave G2 robust z-score 2.26; G2 cells, % of GMNN control 18.9; inactive. Silencing of LMNB2 [SID160752751] came out at: G2 robust z-score 0.0141; G2 cells, % of GMNN control 3.07; inactive. PDIK1L [SID160730654] showed G2 robust z-score -0.209; G2 cells, % of GMNN control 1.49; inactive. Depletion of PDIK1L [SID160758812] resulted in: G2 robust z-score -0.837; G2 cells, % of GMNN control -2.92; inactive. Knock-down of PDIK1L [SID160758813] came out at: G2 robust z-score -1.44; G2 cells, % of GMNN control -7.14; inactive.

With knock-down of HMGB3 [SID160775051], the record shows G2 robust z-score 0.434; G2 cells, % of GMNN control 6.02; inactive. With knock-down of HMGB3 [SID160775052], the record shows G2 robust z-score -0.134; G2 cells, % of GMNN control 2.03; inactive. For HMGB3 [SID160775053], the entry reads G2 robust z-score -0.532; G2 cells, % of GMNN control -0.774; inactive. MCTS1 [SID160731028] scored G2 robust z-score 0.0326; G2 cells, % of GMNN control 3.2; inactive. Knock-down of MCTS1 [SID160738932] came out at: G2 robust z-score -0.991; G2 cells, % of GMNN control -4.01; inactive. Knock-down of MCTS1 [SID160738933] gave: G2 robust z-score -0.996; G2 cells, % of GMNN control -4.04; inactive.

Knock-down of EIF3G [SID160720554] resulted in: G2 robust z-score 1.32; G2 cells, % of GMNN control 12.2; inactive. EIF3G [SID160720555] showed G2 robust z-score 4.13; G2 cells, % of GMNN control 32; inactive. After knock-down of EIF3G [SID160732082], the screen gave G2 robust z-score 1.36; G2 cells, % of GMNN control 12.5; inactive. Silencing of KRT20 [SID160741753] gave: G2 robust z-score -0.905; G2 cells, % of GMNN control -3.4; inactive. Depletion of KRT20 [SID160741754] came out at: G2 robust z-score 2.44; G2 cells, % of GMNN control 20.1; inactive. KRT20 [SID160741755] showed G2 robust z-score -0.569; G2 cells, % of GMNN control -1.04; inactive.

Look-ups from the entries so far:
Value of GRAMD1C [SID160742123] in “outcome”: inactive
Result of HMGB3 [SID160775051] under “G2 cells, % of GMNN control”: 6.02
